# Source: PubChem BioAssay AID248 (DTP/NCI, 2004)
# The list shows only some results of the screen, not a fair sample: it gathers tests that were run many times, whatever their T/C, doses with no T/C, and many T/C values between a quarter and a half above the control. Further doses and runs are listed elsewhere. T/C: endpoint of the treated group in % of that of the vehicle group. Some entries give survivors of the animals treated and no T/C: the source holds a T/C of zero for them, seemingly a mark for toxic or unscored doses. Some doses without a T/C left all or most animals alive at the check, yet need not have been tolerated: survival well below the control is almost never listed, so the zero probably covers shortened survival too. Counts of survivors are from the toxicity check (mostly the fifth day) where no day follows; animals may have died later. Schedule codes are those of the source, read here as Q, the interval in days (D) or hours (H), X, the number of doses. Some entries were tested several times; the values are given in rising order. Some schedule codes hold Z or #, which are not explained here. Some molecules as drawn cover several salts, stereoisomers or complexes of the source; a dose is that of the sample tested. For survival time, this PubChem deposit counts one and a half times the control or more as active, and values a quarter to a half above the control carry no call in these data; other NCI protocols may use other cut-offs. Some T/C values are followed by the survivors on the day toxicity was checked, most often the fifth; where none is given, no animal had died by that day.
# Tested on: L1210 leukemia ip in BDF1 mice, survival T/C
# Assay: NCI In Vivo Anticancer Drug Screen. Data for tumor model L1210 Leukemia (intraperitoneal) in B6D2F1 (BDF1) mice
# Details: T/C endpoint: mean survival time, higher T/C = longer survival
# [1] = dose: 100.0 mg/kg/injection, schedule: Q01DX009 (ip), vehicle: Klucel (hydroxypropylcellulose) (HPC)
# [2] = dose: 100.0 mg/kg/injection, schedule: Q04DX003 (ip), vehicle: saline
# [3] = dose: 200.0 mg/kg/injection, schedule: Q04DX003 (ip), vehicle: saline
# [4] = dose: 200.0 mg/kg/injection, schedule: Q01DX009 (ip), vehicle: Klucel (hydroxypropylcellulose) (HPC)
# [5] = dose: 400.0 mg/kg/injection, schedule: Q01DX001 (ip), vehicle: saline
# [6] = dose: 100.0 mg/kg/injection, schedule: Q04DX002 (ip), vehicle: saline with Tween-80
# [7] = dose: 200.0 mg/kg/injection, schedule: Q04DX002 (ip), vehicle: saline with Tween-80
# [8] = dose: 400.0 mg/kg/injection, schedule: Q04DX002 (ip), vehicle: saline with Tween-80
structure (smiles),measurement,setting,value
C=CCN(CC=C)C(=O)CCN1CC1,survivor count,"dose: 40.0 mg/kg/injection, schedule: Q01DX Z (ip), vehicle: saline",2 of 7
same,survivor count,"dose: 80.0 mg/kg/injection, schedule: Q01DX001 (ip), vehicle: saline",0 of 7
same,survivor count,"dose: 80.0 mg/kg/injection, schedule: Q01DX Z (ip), vehicle: saline",0 of 7
same,survivor count,"dose: 80.0 mg/kg/injection, schedule: Q01DX Z (oral), vehicle: saline",2 of 7
same,survivor count,"dose: 160.0 mg/kg/injection, schedule: Q01DX001 (ip), vehicle: saline",0 of 7
S=C=NCc1ccc(Cl)cc1,survivor count,"dose: 25.0 mg/kg/injection, schedule: Q01DX009 (ip), vehicle: Klucel (hydroxypropylcellulose) (HPC)",3 of 3
same,survivor count,"dose: 50.0 mg/kg/injection, schedule: Q01DX009 (ip), vehicle: Klucel (hydroxypropylcellulose) (HPC)",3 of 3
same,survivor count,[1],0 of 3
Cc1c2ccccc2c(CSC(=N)N)c2ccccc12,T/C,"dose: 8.0 mg/kg/injection, schedule: Q01DX009 (ip), vehicle: saline",134 % of control
same,T/C,"dose: 12.5 mg/kg/injection, schedule: Q01DX009 (ip), vehicle: saline",127 % of control
same,survivor count,"dose: 18.75 mg/kg/injection, schedule: Q01DX009 (ip), vehicle: saline",5 of 6
same,survivor count,"dose: 50.0 mg/kg/injection, schedule: Q04DX003 (ip), vehicle: saline",4 of 6
same,survivor count,[2],1 of 6 and 8 of 8
same,survivor count,[3],1 of 8
same,survivor count,"dose: 400.0 mg/kg/injection, schedule: Q04DX003 (ip), vehicle: saline",0 of 8
O=c1oc2ccccc2c(O)c1Cc1c(O)c2ccccc2oc1=O,survivor count,[1],3 of 3
same,survivor count,[4],0 of 3
CNC(=O)Nc1cccc(OC(=O)NC(C)(C)C)c1,survivor count,"dose: 400.0 mg/kg/injection, schedule: Q01DX009 (ip), vehicle: saline with Tween-80",6 of 6
Cn1cncc1CC1COC(=O)C1C(O)c1ccccc1 (stereo unspecified),survivor count,[5],2 of 6
O=C1OC(O)C(Cl)=C1Cl (stereo unspecified),survivor count,[6],0 of 3
same,survivor count,[7],0 of 3
same,survivor count,[8],0 of 3
O=C1C(Cl)=C(N=Nc2c(Cl)c(O)c3ccccc3c2O)C(=O)c2ccccc21,survivor count,"dose: 100.0 mg/kg/injection, schedule: Q01DX009 (ip), vehicle: acetone",2 of 6
same,survivor count,"dose: 200.0 mg/kg/injection, schedule: Q01DX001 (ip), vehicle: carboxymethylcellulose (CMC)",1 of 4
same,survivor count,"dose: 400.0 mg/kg/injection, schedule: Q01DX001 (ip), vehicle: carboxymethylcellulose (CMC)",0 of 4
CN(C)Cc1ccccc1C(O)(c1ccccc1)c1ccccc1CN(C)C,survivor count,"dose: 64.0 mg/kg/injection, schedule: Q01DX015 (ip), vehicle: carboxymethylcellulose (CMC)",6 of 6
CSc1ncnc2c1ncn2C1OC(CO)C(O)OC1O (stereo unspecified),T/C,"dose: 16.0 mg/kg/injection, schedule: Q01DX009 (ip), vehicle: saline",125 % of control
same,T/C,"dose: 27.0 mg/kg/injection, schedule: Q01DX009 (ip), vehicle: saline",125 % of control
same,T/C,"dose: 42.0 mg/kg/injection, schedule: Q01DX009 (ip), vehicle: saline",137 % of control
same,T/C,"dose: 100.0 mg/kg/injection, schedule: Q01DX001 (ip), vehicle: saline, evaluated on day 30",116 and 122 % of control
same,T/C,"dose: 100.0 mg/kg/injection, schedule: Q01DX001 (ip), vehicle: saline, run until all animals had died",117 and 132 % of control
same,T/C,"dose: 150.0 mg/kg/injection, schedule: Q01DX001 (ip), vehicle: saline",130 % of control [5 of 6 alive]
same,T/C,"dose: 200.0 mg/kg/injection, schedule: Q01DX001 (ip), vehicle: saline, evaluated on day 30",130 % of control
same,T/C,"dose: 200.0 mg/kg/injection, schedule: Q01DX001 (ip), vehicle: saline, run until all animals had died",138 % of control [4 of 6 alive]
same,survivor count,"dose: 200.0 mg/kg/injection, schedule: Q04DX003 (ip), vehicle: Klucel (hydroxypropylcellulose) (HPC)",2 of 6
same,survivor count,[5],0 of 4 and 0 of 6
CCCCC(=O)N(C(C)C)C(C)C,survivor count,"dose: 200.0 mg/kg/injection, schedule: Q01DX009 (ip), vehicle: carboxymethylcellulose (CMC)",0 of 3 and 2 of 6
same,survivor count,"dose: 400.0 mg/kg/injection, schedule: Q04DX002 (ip), vehicle: carboxymethylcellulose (CMC)",0 of 6 and 1 of 3
CCCCCCCCCCCc1nc(N)nc(NCCCC)n1,survivor count,"dose: 100.0 mg/kg/injection, schedule: Q04DX002 (ip), vehicle: Klucel (hydroxypropylcellulose) (HPC)",3 of 3 and 4 of 4
CCN(CC)C(=S)[S][Pb]([c]1ccccc1)([c]1ccccc1)[c]1ccccc1,survivor count,"dose: 400.0 mg/kg/injection, schedule: Q01DX001 (ip), vehicle: steroid suspending solution",4 of 6
CC1c2ccccc2N(CCCN(C)C)c2ccccc21,survivor count,[2],2 of 6
same,survivor count,[3],0 of 6
COC(=O)C1C(O)CCC2CN3CCc4c([nH]c5ccccc45)C3CC21 (stereo unspecified),survivor count,"dose: 200.0 mg/kg/injection, schedule: Q01DX001 (ip), vehicle: saline",1 of 4
same,survivor count,"dose: 300.0 mg/kg/injection, schedule: Q01DX Z (ip), vehicle: carboxymethylcellulose (CMC)",0 of 6
same,survivor count,[5],0 of 4
N#CC(C#N)=C(C#N)C#N,survivor count,"dose: 12.5 mg/kg/injection, schedule: Q01DX009 (ip), vehicle: Klucel (hydroxypropylcellulose) (HPC)",0 of 6
CC12C(=O)OC(=O)C1(C)C1CCC2O1 (stereo unspecified),survivor count,"dose: 6.25 mg/kg/injection, schedule: Q04DX002 (ip), vehicle: saline with Tween-80",2 of 3
same,survivor count,"dose: 12.5 mg/kg/injection, schedule: Q04DX002 (ip), vehicle: saline with Tween-80",0 of 3
same,survivor count,"dose: 25.0 mg/kg/injection, schedule: Q04DX002 (ip), vehicle: saline with Tween-80",0 of 3
same,survivor count,[6],0 of 3
same,survivor count,[7],0 of 3
same,survivor count,[8],0 of 3
COC1/C=C/OC2(C)Oc3c(C)c(O)c4c(O)c(c(/C=N/N5C(C)CN(Cc6ccccc6)CC5C)c(O)c4c3C2=O)NC(=O)C(C)=C/C=C/C(C)C(O)C(C)C(O)C(C)C(OC(C)=O)C1C (stereo unspecified),survivor count,[4],9 of 9
same,survivor count,"dose: 400.0 mg/kg/injection, schedule: Q01DX009 (ip), vehicle: Klucel (hydroxypropylcellulose) (HPC)",1 of 10
C[CH2][Sn]([CH2]C)([CH2]C)[O]C(=O)CO,survivor count,"dose: 25.0 mg/kg/injection, schedule: Q04DX002 (ip), vehicle: saline",0 of 3
same,survivor count,"dose: 50.0 mg/kg/injection, schedule: Q04DX002 (ip), vehicle: saline",0 of 3
same,survivor count,"dose: 100.0 mg/kg/injection, schedule: Q04DX002 (ip), vehicle: saline",0 of 3
same,survivor count,"dose: 200.0 mg/kg/injection, schedule: Q04DX002 (ip), vehicle: saline",0 of 3
same,survivor count,"dose: 400.0 mg/kg/injection, schedule: Q04DX002 (ip), vehicle: saline",0 of 3
C=NN=C(NN=C)NN=C,survivor count,"dose: 60.0 mg/kg/injection, schedule: Q01DX Z (oral), vehicle: methylcellulose (MC)",3 of 5
same,survivor count,"dose: 240.0 mg/kg/injection, schedule: Q01DX Z (ip), vehicle: methylcellulose (MC)",0 of 6
same,survivor count,"dose: 240.0 mg/kg/injection, schedule: Q01DX Z (oral), vehicle: methylcellulose (MC)",3 of 6
same,survivor count,"dose: 360.0 mg/kg/injection, schedule: Q01DX Z (ip), vehicle: methylcellulose (MC)",0 of 6
same,survivor count,"dose: 480.0 mg/kg/injection, schedule: Q01DX Z (ip), vehicle: methylcellulose (MC)",0 of 6
same,survivor count,"dose: 760.0 mg/kg/injection, schedule: Q01DX Z (oral), vehicle: methylcellulose (MC)",0 of 6
same,survivor count,"dose: 960.0 mg/kg/injection, schedule: Q01DX Z (oral), vehicle: methylcellulose (MC)",0 of 6
